Data taken from PubChem BioAssay AID2685 (National Center for Advancing Translational Sciences (NCATS), 2010).
Some of the results follow. The main result of the screen is listed elsewhere. These columns were measured beside it and carry no call. Compounds called inactive in the main read-out are mostly missing here. The note in brackets gives the kind of curve behind each potency; many fits are weak.

Assay: qHTS Assay for Lipid Storage Modulators in Drosophila S3 Cells;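 as to cell number change: cells counted by Cell Tracker Red CMTPX staining in the red channel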
Details: BODIPY lipid droplet fluorescence, 18-24 h; for cell number change: measured here: cell count max response, cells fed with added oleic acid
Outline: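 Laser-scanning cytometry quantifies lipid droplet accumulation (500–530 nm total intensity; droplet/cell object ratio) in oleic acid-fed (400 uM added) Drosophila S3 cells treated with a concentration series. 20 uM Triacsin C defined 100% inhibition.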

[1] = measured here: lipid fluorescence (Fed channel) AC50, cells fed with added oleic acid
[2] = measured here: cell number channel AC50, cells fed with added oleic acid

Structure (SMILES) | cell number change [%] | AC50 [1] | AC50 [2]
Cc1ccc(CNC(=O)CNS(=O)(=O)c2cccc3nsnc23)cc1 | -2.39 | 0.0206 µM [rising, full curve, poor fit] | 
CC1(C)CC(NC(=O)CCc2ccccc2)CC(C)(C)N1 | -17 | 23.1 µM [falling, single point] | 
CCOC(=O)C1CCCN(C(=O)Cn2nc(C)c3c(C)n(-c4ccccc4)nc3c2=O)C1 (stereo unspecified) | 13 |  | 
CCN(CC)C(=O)C1CCCN(Cc2ccc(OC)c(C)c2)C1 (stereo unspecified) | 2.78 |  | 
COc1cccc(NC(=O)CSc2ccc(-c3ccco3)nn2)c1 | 11.6 | 0.164 µM [rising, full curve, poor fit] | 
CCNc1nc(NCC)n2c(SCC(=O)Nc3ccc(F)cc3)nnc2n1 | 8.47 | 0.651 µM [falling, single point] | 
CCc1nnc(NC(=O)CSc2nc(C)c3c(c2C#N)CCCC3)s1 | -23.7 | 0.116 µM [falling, full curve, poor fit] | 
CS(=O)(=O)c1cccc(C(=O)NC(c2ccccc2)c2ccccc2)c1 | -33.6 |  | 29.1 µM [falling, single point]
Cc1c(NC(=O)Nc2ccc(Cl)c(Cl)c2)c(=O)n(-c2ccccc2)n1C | -7.42 | 0.0146 µM [falling, full curve, poor fit] | 
CCOc1cc(/C=C(\C#N)C(=O)Nc2ccccc2[N+](=O)[O-])ccc1OCc1cccc2ccccc12 | 92.7 |  | 
Cc1cc2nc3s/c(=C/c4ccc(-c5ccccc5C(=O)O)o4)c(=O)n3c2cc1C | -2.82 |  | 0.146 µM [rising, full curve, poor fit]
O=C(CSc1nnc(-c2ccc(Cl)cc2)o1)N1CCN(c2ccccc2)CC1 | -11.5 | 0.731 µM [rising, single point] | 
O=C(Nc1ccc(Cl)c(S(=O)(=O)N2CCOCC2)c1)C1CCC1 | -0.41 | 0.326 µM [falling, partial curve, poor fit] | 
COc1ccc(N(C)S(=O)(=O)c2cccc(C(=O)OC(C)C(=O)NC3CCCCC3C)c2)cc1 (stereo unspecified) | 38.1 | 9.2 µM [rising, partial curve] | 8.2 µM [rising, partial curve, poor fit]
CCOC(=O)N1CCN(C(=O)c2cc3sccc3n2C)CC1 | 57.6 | 0.82 µM [rising, single point] | 18.4 µM [rising, single point]
CCc1nnc(NC(=O)C2=CCN(S(=O)(=O)c3ccccc3)CC2)s1 | -13.8 | 29.1 µM [falling, single point] | 
CSc1nc(C)c2c(n1)N(c1ccc(C(C)C)cc1)CC2 | -9.96 | 29.1 µM [falling, single point] | 
S=C(NCCc1ccc(Cl)cc1)NC1CCCC1 | -21.5 | 9.2 µM [falling, partial curve] | 
CCC(=O)n1nc(NCc2ccccc2OC)nc1NCc1ccccc1OC | -13.4 |  | 
Cn1c(SCC(=O)Nc2ccc3cn[nH]c3c2)nnc1-c1cccs1 | -1.84 | 0.082 µM [falling, full curve, poor fit] | 

Single records (already shown).
CCC(=O)n1nc(NCc2ccccc2OC)nc1NCc1ccccc1OC reads cell number change [%]: -13.4
CCOC(=O)C1CCCN(C(=O)Cn2nc(C)c3c(C)n(-c4ccccc4)nc3c2=O)C1 (stereo unspecified) reads cell number change [%]: 13
CCNc1nc(NCC)n2c(SCC(=O)Nc3ccc(F)cc3)nnc2n1 reads cell number change [%]: 8.47; AC50 [1]: 0.651 µM [falling, single point]
CCOC(=O)N1CCN(C(=O)c2cc3sccc3n2C)CC1 reads cell number change [%]: 57.6; AC50 [1]: 0.82 µM [rising, single point]; AC50 [2]: 18.4 µM [rising, single point]

The results go on:

Structure (SMILES) | cell number change [%] | AC50 [1] | AC50 [2]
CN1CC(=O)N(C)c2ncn(Cc3ccccc3)c2C1=O | -54.6 | 20.6 µM [falling, single point] | 4.11 µM [falling, full curve, poor fit]
CC(=O)OC1c2ccccc2C(=O)N1Cc1ccccc1 (stereo unspecified) | 20.8 | 32.6 µM [rising, single point] | 
COc1ccccc1C(N)=S | 3.15 | 4.11 µM [falling, full curve] | 
O=C(NCCc1ccccc1)c1ccc2c(c1)S(=O)(=O)N=C1CCCCCN12 | 10.6 |  | 
CC(Sc1nnnn1C)C(=O)Nc1cc(S(=O)(=O)N2CCCCC2)ccc1Cl (stereo unspecified) | -8 | 2.59 µM [falling, partial curve] | 
CC1=NN(c2ccccc2)C(=O)/C1=C/C=C/c1ccccc1 | -79.3 | 4.61 µM [falling, full curve] | 20.6 µM [falling, partial curve]
Cc1cc(C)c(NC(=O)CS(=O)CC(=O)N2CCN(c3ccccc3)CC2)c(C)c1 (stereo unspecified) | 49.1 | 0.82 µM [rising, single point] | 3.66 µM [rising, partial curve]
COC(=O)c1ccc(NC(=O)CSc2nncn2-c2cccnc2)cc1 | -16.7 |  | 
CCCCN(CC)Cc1ccc(CNC(=S)Nc2ccc(C)cc2Cl)o1 | -53.5 |  | 29.1 µM [falling, partial curve, poor fit]
Cc1ccc(Cn2nnc3c(=O)n(Cc4cccc(C)c4)cnc32)cc1 |  | 1.84 µM [rising, partial curve] | 
O=C(Nc1ccccc1C(=O)N1CCOCC1)c1ccc(F)cc1 | -85.5 | 5.17 µM [falling, partial curve, poor fit] | 14.6 µM [falling, partial curve, poor fit]
CC(=O)c1ccc(S(=O)(=O)Nc2cc3c(cc2C(C)=O)OCO3)cc1 |  | 2.91 µM [rising, single point] | 2.91 µM [falling, single point]
COc1cc(NC(=O)c2ccc(S(=O)(=O)N(C)C)cc2)cc(OC)c1OC | -12.8 | 0.58 µM [falling, full curve, poor fit] | 
COc1ccc(C2Nc3ccccc3C(=O)N2c2ccc(Cl)cc2)cc1Cn1cc([N+](=O)[O-])cn1 (stereo unspecified) | 6.48 | 16.4 µM [rising, partial curve, poor fit] | 
CCc1nc(Nc2ccc3c(c2)OCCO3)c2oc3ccccc3c2n1 |  | 2.06 µM [rising, partial curve] | 0.411 µM [rising, full curve]
O=C(c1ccco1)N1CCN(C(=O)C2CCCN(S(=O)(=O)c3cccc4nsnc34)C2)CC1 (stereo unspecified) |  |  | 6.51 µM [rising, single point]
O=C(NCCC(=O)N1CCCC(C(F)(F)F)C1)c1ccc(Br)cc1 (stereo unspecified) |  | 5.17 µM [rising, single point] | 6.51 µM [rising, single point]
O=C(Nc1ccc(F)cc1)c1ccc(S(=O)(=O)N2CCCC2)cc1 | -10.5 | 35.5 µM [rising, single point] | 
Cc1cc(C)c2nc(N3CCC(C(=O)N4CCN(c5ncccn5)CC4)CC3)sc2c1 |  |  | 6.51 µM [rising, single point]
CCc1nn(CC(=O)NCCCc2ccccc2)c(=O)c2cc3c(OC)cccc3n12 | 14 |  | 

Structure (SMILES) | cell number change [%] | AC50 [1] | AC50 [2]
CN1/C(=C\C(=O)C[n+]2ccc3ccccc3c2)C(C)(C)c2ccccc21 |  | 29.1 µM [falling, single point] | 6.51 µM [rising, single point]
Cc1cc(C(=O)N/N=C2\CCCC(=O)C2)c2ccccc2n1 | -14.5 | 0.00517 µM [falling, full curve, poor fit] | 
CO[C@H]1C=CO[C@@]2(C)Oc3c(C)c(O)c4c(O)c(c(C=NN5CCN(C)CC5)c(O)c4c3C2=O)NC(=O)C(C)=CC=C[C@H](C)[C@H](O)[C@@H](C)[C@@H](O)[C@@H](C)[C@H](OC(C)=O)[C@@H]1C | -34 | 23.1 µM [falling, single point] | 16.4 µM [falling, single point]
CCN(CCO)Cc1csc2ccc(Cl)cc12 | -28.8 | 1.46 µM [falling, full curve] | 
Cc1cc(C)n(CCNC(=O)c2ccc3c(c2)OCO3)n1 | 3.85 |  | 
O=C(CNCc1cccs1)NC12CC3CC(CC(C3)C1)C2 | 65 |  | 0.13 µM [falling, full curve, poor fit]
Cc1cc(OCC(=O)N2CCN(c3cccc(Cl)c3)CC2)c2c(C)c(C)c(=O)oc2c1 | 12.5 | 10.3 µM [rising, partial curve] | 
COc1ccc([N+](=O)[O-])cc1NC(=O)c1ccc(C)o1 |  | 1.03 µM [rising, partial curve] | 
N#Cc1ccc(NC(=O)c2cc(=O)c3ccccc3o2)cc1 | -21.8 | 29.1 µM [falling, single point] | 
COc1cc(OC)cc(-c2nc(-c3cccs3)no2)c1 | -9.93 | 0.146 µM [falling, full curve, poor fit] | 0.259 µM [falling, full curve, poor fit]
O=C(CCCl)Nc1cc(SCCO)cc([N+](=O)[O-])c1 | -2.23 | 0.731 µM [falling, partial curve, poor fit] | 
Cc1ccc(C(=O)Nc2nnc(S(=O)(=O)N3CCN(c4ccc(F)cc4)CC3)s2)cc1 | -17.7 |  | 
CC(=O)NCCC(=O)Nc1nc(-c2c[nH]c3ccccc23)cs1 |  | 11.6 µM [falling, partial curve] | 
COc1cc(C)c(Cl)c(C)c1S(=O)(=O)NC1CC(C)(C)NC(C)(C)C1 | -16.9 | 0.366 µM [falling, partial curve, poor fit] | 
O=C(COC(=O)Cc1ccc(Cl)cc1)NCCc1ccccc1 | -7.36 | 0.00461 µM [falling, full curve, poor fit] | 
C/C=C/C(O)c1ccc2ccccc2c1 (stereo unspecified) | 19.4 | 29.1 µM [rising, single point] | 
CC1(C2CC2)NC(=O)N(CC(=O)Nc2ccccc2F)C1=O (stereo unspecified) | -23.9 | 6.51 µM [rising, single point] | 
O=C(O)c1ccc(-c2nc(-c3ccccc3Cl)cs2)cc1 | -6.37 | 2.06 µM [falling, partial curve] | 6.51 µM [falling, single point]
